For nine molecules, binding results are on record in article PMC6430810 (2019).

Amino acid sequences for entries named in this document (tags omitted). A change or cut given only in a name is not applied to a line headed by its entry.
UniProt A1L200: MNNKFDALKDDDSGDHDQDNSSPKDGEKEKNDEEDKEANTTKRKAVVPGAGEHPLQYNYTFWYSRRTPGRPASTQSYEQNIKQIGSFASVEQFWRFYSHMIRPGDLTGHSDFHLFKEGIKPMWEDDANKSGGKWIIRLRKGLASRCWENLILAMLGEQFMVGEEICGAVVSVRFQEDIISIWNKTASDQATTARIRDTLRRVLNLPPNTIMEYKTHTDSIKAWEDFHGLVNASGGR
UniProt A0A8M1NGD6: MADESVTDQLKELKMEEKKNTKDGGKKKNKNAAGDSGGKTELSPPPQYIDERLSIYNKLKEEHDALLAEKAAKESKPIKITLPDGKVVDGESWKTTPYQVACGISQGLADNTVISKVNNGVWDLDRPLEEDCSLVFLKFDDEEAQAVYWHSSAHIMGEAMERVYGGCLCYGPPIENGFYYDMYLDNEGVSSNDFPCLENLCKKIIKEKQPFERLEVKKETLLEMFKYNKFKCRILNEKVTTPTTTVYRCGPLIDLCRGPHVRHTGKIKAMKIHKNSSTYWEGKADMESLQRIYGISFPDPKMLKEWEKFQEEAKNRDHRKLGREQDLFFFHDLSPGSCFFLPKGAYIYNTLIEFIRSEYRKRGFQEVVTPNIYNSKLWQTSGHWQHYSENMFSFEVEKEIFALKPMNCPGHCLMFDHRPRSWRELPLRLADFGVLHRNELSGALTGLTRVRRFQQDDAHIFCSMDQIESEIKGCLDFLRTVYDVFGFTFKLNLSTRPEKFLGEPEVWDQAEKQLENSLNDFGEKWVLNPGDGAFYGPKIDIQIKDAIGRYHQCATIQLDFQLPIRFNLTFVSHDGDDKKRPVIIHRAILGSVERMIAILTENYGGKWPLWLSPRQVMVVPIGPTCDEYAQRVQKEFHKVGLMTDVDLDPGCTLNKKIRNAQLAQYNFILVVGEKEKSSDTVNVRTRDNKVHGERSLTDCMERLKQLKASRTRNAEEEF

These are yes or no findings as the source states them, for the method shown. For part of these data: Binding calls can cover weak binding; strength is not graded here. For part of these data: Tags and fused reporters may be left off the sequences shown. For part of these data: In cells and extracts the contact can be indirect.

For experiment [1], the target named is T1, TRS-VN (human TRS fused to the Venus N-domain) (human) (UniProt P26639).
T1 sequence: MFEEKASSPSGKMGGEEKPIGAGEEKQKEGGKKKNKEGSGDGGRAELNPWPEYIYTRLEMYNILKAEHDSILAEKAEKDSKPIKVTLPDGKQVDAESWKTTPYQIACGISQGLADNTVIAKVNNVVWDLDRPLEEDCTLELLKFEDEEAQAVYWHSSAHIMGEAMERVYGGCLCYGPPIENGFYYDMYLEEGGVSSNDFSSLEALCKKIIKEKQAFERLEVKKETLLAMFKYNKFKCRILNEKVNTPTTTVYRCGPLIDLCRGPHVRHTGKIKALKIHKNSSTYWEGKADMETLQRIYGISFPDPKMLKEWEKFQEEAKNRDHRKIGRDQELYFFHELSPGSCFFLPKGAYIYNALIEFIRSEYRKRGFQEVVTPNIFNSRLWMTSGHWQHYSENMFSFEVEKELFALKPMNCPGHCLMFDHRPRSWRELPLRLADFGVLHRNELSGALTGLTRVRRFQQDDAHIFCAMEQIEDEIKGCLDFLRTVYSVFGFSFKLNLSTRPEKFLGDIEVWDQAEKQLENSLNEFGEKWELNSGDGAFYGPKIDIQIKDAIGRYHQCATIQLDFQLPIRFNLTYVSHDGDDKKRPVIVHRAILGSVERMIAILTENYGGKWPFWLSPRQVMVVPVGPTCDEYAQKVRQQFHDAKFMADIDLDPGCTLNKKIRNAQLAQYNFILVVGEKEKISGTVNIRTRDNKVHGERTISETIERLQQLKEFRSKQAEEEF
The experiment can be described thus: split reporter; BiFC with Venus; pBiFC-VN173-ARSs co-transfected with pBiFC-VC155-eIF4E isoforms in CHO cells; fluorescence and confocal microscopy.

Experiment [2] deals with T2, human threonyl-tRNA synthetase, Strep-tagged (TRS-Strep) (human) (UniProt P26639).
T2 sequence: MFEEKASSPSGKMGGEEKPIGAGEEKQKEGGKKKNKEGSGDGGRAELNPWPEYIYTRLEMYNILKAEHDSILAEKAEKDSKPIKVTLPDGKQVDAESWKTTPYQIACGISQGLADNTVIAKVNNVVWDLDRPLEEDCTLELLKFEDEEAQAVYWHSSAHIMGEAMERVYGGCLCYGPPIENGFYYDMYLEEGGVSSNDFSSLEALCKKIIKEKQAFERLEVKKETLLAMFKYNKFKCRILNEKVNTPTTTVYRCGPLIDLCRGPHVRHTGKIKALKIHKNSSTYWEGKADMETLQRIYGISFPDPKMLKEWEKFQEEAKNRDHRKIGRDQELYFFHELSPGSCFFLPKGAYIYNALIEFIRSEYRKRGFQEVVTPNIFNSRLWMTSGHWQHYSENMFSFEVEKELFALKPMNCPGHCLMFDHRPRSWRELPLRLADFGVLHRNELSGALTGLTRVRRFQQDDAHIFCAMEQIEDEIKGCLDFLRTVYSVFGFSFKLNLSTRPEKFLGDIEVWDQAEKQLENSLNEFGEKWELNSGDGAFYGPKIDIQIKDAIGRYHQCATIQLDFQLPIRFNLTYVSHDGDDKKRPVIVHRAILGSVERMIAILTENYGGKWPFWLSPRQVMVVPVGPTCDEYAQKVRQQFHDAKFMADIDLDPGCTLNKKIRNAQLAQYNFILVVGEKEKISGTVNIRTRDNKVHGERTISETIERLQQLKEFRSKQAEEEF
The experiment can be described thus: pull-down; purified TRS-Strep mixed with 4EHP (45-245) at 1:3 or His-GST-PABP at 1:2, 8 h at 4 °C; Strep-Tactin resin; wash 50 mM Tris-HCl pH 7.5, 300 mM NaCl, 1 mM EDTA, 2% NP-40; eluted with desthiobiotin; both purified.

The target of experiment [3] is T3, endogenous human TRS (human (endogenous in WI-26 and 293T)) (UniProt P26639).
T3 sequence: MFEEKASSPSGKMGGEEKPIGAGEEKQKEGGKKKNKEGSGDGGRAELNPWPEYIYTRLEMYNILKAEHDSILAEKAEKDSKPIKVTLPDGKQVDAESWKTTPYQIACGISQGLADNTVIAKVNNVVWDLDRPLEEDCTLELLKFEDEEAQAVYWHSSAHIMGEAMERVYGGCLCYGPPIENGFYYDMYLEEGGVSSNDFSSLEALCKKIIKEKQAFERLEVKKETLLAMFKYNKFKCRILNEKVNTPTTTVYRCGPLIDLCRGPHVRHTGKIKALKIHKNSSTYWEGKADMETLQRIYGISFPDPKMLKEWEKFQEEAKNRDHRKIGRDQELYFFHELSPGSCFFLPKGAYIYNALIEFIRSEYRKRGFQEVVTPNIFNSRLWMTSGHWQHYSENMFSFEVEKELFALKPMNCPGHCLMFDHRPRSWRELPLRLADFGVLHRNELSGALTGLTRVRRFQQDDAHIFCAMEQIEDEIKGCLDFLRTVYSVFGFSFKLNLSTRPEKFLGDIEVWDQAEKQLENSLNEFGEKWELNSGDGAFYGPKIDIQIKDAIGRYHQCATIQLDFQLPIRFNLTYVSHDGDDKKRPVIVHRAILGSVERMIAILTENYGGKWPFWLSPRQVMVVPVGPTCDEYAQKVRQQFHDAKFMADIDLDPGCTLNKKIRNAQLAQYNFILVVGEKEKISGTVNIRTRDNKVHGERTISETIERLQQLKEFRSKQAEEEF
In words: co-IP; endogenous proteins in WI-26 cell lysates; anti-TRS or anti-4EHP immunoprecipitation; rabbit or mouse IgG as negative control.

In experiment [4] the target is T4, GST-TRS (human, from E. coli) (human) (UniProt P26639).
T4 sequence: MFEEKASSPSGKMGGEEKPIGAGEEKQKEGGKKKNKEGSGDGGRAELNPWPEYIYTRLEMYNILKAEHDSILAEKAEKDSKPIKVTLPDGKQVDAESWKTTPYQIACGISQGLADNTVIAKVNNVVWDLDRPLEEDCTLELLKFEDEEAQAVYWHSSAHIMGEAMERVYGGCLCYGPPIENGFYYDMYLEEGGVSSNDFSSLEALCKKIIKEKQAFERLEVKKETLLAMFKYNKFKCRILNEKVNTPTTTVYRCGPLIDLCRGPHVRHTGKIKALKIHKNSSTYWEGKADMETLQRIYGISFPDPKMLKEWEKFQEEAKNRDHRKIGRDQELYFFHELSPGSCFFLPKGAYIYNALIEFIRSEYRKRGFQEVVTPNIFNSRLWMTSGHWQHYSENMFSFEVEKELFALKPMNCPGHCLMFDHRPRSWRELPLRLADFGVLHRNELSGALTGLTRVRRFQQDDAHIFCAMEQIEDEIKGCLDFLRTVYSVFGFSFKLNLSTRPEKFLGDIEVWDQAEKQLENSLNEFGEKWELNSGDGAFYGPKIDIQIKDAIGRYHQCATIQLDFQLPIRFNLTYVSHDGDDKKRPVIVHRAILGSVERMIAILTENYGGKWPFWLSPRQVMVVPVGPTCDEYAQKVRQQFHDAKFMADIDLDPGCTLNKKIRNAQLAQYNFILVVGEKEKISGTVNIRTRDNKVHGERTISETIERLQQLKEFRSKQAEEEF
In words: pull-down; purified GST-TRS on glutathione-Sepharose incubated with 293T lysates holding FLAG-tagged proteins, 4 h at 4 °C; PBS with 0.2% NP-40, 5% glycerol, 1 mM EDTA, 1 mM DTT; anti-FLAG immunoblot; only the target purified. In general terms: In western blotting, separated proteins are transferred to a membrane and probed.

Experiment [5] concerns the target zebrafish HA-4EHP (HA-z4EHP) (zebrafish) (UniProt A1L200). In words: co-IP; Myc-TRS and HA-4EHP (or other tagged proteins) co-expressed in 293T; anti-Myc or anti-HA immunoprecipitation; tag-specific immunoblot.
Experiment [6] deals with human 4EHP (residues 45-234) co-expressed with TRS (30-74) for crystallisation (human). In words: crystal structure; 4EHP (45-234)-TRS (30-74) complex; 20% PEG 8000, 0.1 M CHES pH 9.5, 21 °C; without m^7GTP; 1.9 Å; both purified.
Experiment [7] addresses 4EHP-VC (human 4EHP fused to the Venus C-domain) (human). In words: split reporter; BiFC with Venus; pBiFC-VN173-ARSs co-transfected with pBiFC-VC155-eIF4E isoforms in CHO cells; fluorescence and confocal microscopy.
Experiment [8] deals with PABP-FLAG (human poly(A)-binding protein) (human). In words: co-IP; FLAG-tagged protein co-expressed with Strep- or GST-tagged proteins in 293T; anti-FLAG immunoprecipitation; anti-Strep or anti-GST immunoblot.

For the molecule “4EHP-VC (human 4EHP fused to the Venus C-domain)”, the binding entry in experiment [1] is reported as “binds”.
Consider “human 4EHP (residues 45-245) (domain or fragment)”, for which the binding result in experiment [2] is given as “binds weakly”.
As for endogenous human PABP, the binding entry in experiment [3] was “binds”.
Take “PABP-FLAG (human poly(A)-binding protein)”: the binding entry in experiment [4] is given as “binds”.
As for His-GST-PABP (human, from E. coli), in experiment [2], the binding result is listed as “binds”.
Turning to “zebrafish Myc-TRS wild type (zTRS WT) (from UniProt A0A8M1NGD6) (enzyme)”, in experiment [5], the binding entry is listed as “binds”.
GGKKKNKEGSGDGGRAELNPWPEYIYTRLEMYNILKAEHDSILAE (domain or fragment, UniProt P26639 30-74) [human TRS UNE-T region (residues 30-74), tag-free]: the binding result in experiment [6] was “binds”.

B1: WRS-VN (tryptophanyl-tRNA synthetase fused to the Venus N-domain) (enzyme, UniProt P23381 1-471)
chain: MPNSEPASLLELFNSIATQGELVRSLKAGNASKDEIDSAVKMLVSLKMSYKAAAGEDYKADCPPGNPAPTSNHGPDATEAEEDFVDPWTVQTSSAKGIDYDKLIVRFGSSKIDKELINRIERATGQRPHHFLRRGIFFSHRDMNQVLDAYENKKPFYLYTGRGPSSEAMHVGHLIPFIFTKWLQDVFNVPLVIQMTDDEKYLWKDLTLDQAYSYAVENAKDIIACGFDINKTFIFSDLDYMGMSSGFYKNVVKIQKHVTFNQVKGIFGFTDSDCIGKISFPAIQAAPSFSNSFPQIFRDRTDIQCLIPCAIDQDPYFRMTRDVAPRIGYPKPALLHSTFFPALQGAQTKMSASDPNSSIFLTDTAKQIKTKVNKHAFSGGRDTIEEHRQFGGNCDVDVSFMYLTFFLEDDDKLEQIRKDYTSGAMLTGELKKALIEVLQPLIAEHQARRKEVTDEIVKEFMTPRKLSFDFQ
For B1, in experiment [7], the binding entry is listed as “no binding”.

B2: TRS-Strep M60K mutant (enzyme, UniProt P26639 1-723)
chain: MFEEKASSPSGKMGGEEKPIGAGEEKQKEGGKKKNKEGSGDGGRAELNPWPEYIYTRLEKYNILKAEHDSILAEKAEKDSKPIKVTLPDGKQVDAESWKTTPYQIACGISQGLADNTVIAKVNNVVWDLDRPLEEDCTLELLKFEDEEAQAVYWHSSAHIMGEAMERVYGGCLCYGPPIENGFYYDMYLEEGGVSSNDFSSLEALCKKIIKEKQAFERLEVKKETLLAMFKYNKFKCRILNEKVNTPTTTVYRCGPLIDLCRGPHVRHTGKIKALKIHKNSSTYWEGKADMETLQRIYGISFPDPKMLKEWEKFQEEAKNRDHRKIGRDQELYFFHELSPGSCFFLPKGAYIYNALIEFIRSEYRKRGFQEVVTPNIFNSRLWMTSGHWQHYSENMFSFEVEKELFALKPMNCPGHCLMFDHRPRSWRELPLRLADFGVLHRNELSGALTGLTRVRRFQQDDAHIFCAMEQIEDEIKGCLDFLRTVYSVFGFSFKLNLSTRPEKFLGDIEVWDQAEKQLENSLNEFGEKWELNSGDGAFYGPKIDIQIKDAIGRYHQCATIQLDFQLPIRFNLTYVSHDGDDKKRPVIVHRAILGSVERMIAILTENYGGKWPFWLSPRQVMVVPVGPTCDEYAQKVRQQFHDAKFMADIDLDPGCTLNKKIRNAQLAQYNFILVVGEKEKISGTVNIRTRDNKVHGERTISETIERLQQLKEFRSKQAEEEF
Consider B2, for which the binding entry in experiment [8] is listed as “binds”.
